Results from PMC3820265.
Results are given in words; binding and its absence hold for the method and conditions named. In cells and extracts the contact can be indirect. Some binding calls cover weakened binding; strength is not graded here. One block for each substance: values may come before it.

Protein sequences, listed by entry. Tags and fused reporters are not part of them. Residues count along the entry.
UniProt Q684R7, residues 30-2191: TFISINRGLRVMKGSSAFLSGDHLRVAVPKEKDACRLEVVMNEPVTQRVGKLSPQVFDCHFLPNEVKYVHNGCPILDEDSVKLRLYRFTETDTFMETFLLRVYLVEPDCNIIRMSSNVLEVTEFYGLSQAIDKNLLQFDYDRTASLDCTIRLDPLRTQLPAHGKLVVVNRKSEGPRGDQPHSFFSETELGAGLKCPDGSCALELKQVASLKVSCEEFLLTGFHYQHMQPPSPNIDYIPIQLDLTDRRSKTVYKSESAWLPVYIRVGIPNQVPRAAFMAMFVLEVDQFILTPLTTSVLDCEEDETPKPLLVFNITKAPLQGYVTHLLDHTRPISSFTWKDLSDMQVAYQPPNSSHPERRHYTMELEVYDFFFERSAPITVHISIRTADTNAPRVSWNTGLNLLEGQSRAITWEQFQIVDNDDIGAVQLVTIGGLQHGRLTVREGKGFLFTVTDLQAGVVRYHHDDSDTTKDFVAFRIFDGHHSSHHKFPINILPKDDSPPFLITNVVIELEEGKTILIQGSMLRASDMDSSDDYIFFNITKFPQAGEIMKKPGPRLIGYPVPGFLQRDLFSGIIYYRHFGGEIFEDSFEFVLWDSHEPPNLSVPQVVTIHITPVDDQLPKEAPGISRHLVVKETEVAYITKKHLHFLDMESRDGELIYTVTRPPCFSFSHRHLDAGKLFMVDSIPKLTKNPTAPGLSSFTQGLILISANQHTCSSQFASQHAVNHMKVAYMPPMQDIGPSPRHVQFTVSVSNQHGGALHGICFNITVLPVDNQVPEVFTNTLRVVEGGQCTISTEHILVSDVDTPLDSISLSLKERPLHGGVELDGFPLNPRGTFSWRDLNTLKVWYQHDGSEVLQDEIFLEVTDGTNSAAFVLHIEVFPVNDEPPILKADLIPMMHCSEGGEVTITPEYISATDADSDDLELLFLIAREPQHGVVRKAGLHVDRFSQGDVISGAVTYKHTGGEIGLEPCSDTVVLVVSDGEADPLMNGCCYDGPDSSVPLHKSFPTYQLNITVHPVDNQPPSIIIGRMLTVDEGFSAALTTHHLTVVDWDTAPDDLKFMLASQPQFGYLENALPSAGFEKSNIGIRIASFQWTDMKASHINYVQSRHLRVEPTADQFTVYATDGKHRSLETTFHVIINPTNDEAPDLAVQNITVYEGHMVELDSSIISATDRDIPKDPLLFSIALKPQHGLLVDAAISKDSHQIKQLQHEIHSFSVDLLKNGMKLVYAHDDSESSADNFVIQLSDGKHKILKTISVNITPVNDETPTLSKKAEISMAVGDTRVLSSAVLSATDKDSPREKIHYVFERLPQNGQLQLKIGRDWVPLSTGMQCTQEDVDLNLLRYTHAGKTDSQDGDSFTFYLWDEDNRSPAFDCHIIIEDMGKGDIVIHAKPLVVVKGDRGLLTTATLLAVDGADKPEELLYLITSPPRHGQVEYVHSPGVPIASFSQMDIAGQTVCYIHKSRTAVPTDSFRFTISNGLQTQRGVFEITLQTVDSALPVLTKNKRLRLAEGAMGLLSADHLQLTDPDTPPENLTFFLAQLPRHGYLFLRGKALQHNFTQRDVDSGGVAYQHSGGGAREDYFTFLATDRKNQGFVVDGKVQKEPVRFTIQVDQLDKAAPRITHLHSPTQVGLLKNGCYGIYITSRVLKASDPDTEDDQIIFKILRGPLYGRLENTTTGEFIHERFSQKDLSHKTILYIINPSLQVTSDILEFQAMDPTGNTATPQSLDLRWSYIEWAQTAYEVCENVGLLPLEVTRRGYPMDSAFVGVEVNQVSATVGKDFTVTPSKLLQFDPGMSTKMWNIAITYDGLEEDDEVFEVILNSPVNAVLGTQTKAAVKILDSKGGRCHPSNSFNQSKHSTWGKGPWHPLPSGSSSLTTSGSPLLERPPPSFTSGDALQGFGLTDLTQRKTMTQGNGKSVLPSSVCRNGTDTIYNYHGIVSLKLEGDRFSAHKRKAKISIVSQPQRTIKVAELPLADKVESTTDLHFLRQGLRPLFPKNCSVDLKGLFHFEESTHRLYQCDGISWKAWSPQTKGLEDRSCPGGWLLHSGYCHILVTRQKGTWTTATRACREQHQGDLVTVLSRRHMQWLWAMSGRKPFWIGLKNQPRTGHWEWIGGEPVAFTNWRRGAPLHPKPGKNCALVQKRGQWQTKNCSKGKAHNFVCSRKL
UniProt Q8CI19, residues 23-345: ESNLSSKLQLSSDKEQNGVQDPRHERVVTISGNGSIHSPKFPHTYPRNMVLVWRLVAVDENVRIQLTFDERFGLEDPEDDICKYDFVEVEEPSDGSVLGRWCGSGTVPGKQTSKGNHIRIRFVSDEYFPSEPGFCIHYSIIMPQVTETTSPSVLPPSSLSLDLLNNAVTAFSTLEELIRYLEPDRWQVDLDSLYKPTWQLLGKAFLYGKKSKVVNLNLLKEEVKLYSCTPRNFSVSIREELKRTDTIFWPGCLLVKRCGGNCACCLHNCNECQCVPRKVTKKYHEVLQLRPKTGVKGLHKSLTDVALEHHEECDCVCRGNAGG

What was measured:
[1] = target: endogenous FREM1 (mouse (endogenous in E12.5 embryos)) (UniProt Q684R7); assay: co-IP; endogenous proteins; rabbit anti-FREM1 or pre-immune serum, 2 mg of total embryo protein lysate (E12.5)
[2] = target: PDGFC-V5 (mouse) (UniProt Q8CI19); assay: co-IP; HEK293 cells co-transfected; pre-cleared lysate supernatants, immunoprecipitation with mouse V5 antibody (PDGFC-V5) overnight, protein A- or G-sepharose, western blot for FLAG or MYC
[3] = target: full-length FREM1-FLAG (Fras1-related extracellular matrix protein 1) (mouse) (UniProt Q684R7); assay: co-IP; reciprocal: HEK293 cells co-transfected; immunoprecipitation with rabbit anti-FREM1 polyclonal antibody, PDGFC detected in the immunoprecipitates

binding [1]: binds
Substance: endogenous PDGFC (from UniProt Q8CI19 23-345) (ligand)

binding [2]: binds
Substance: full-length FREM1-FLAG (Fras1-related extracellular matrix protein 1) (from UniProt Q684R7 30-2191)

binding [3]: binds
Substance: PDGFC-V5 (from UniProt Q8CI19 23-345) (ligand)
